PubChem BioAssay AID1259289 – Sanger Institute, 2017
In all, the deposit lists 794 reagents; this is a random part of them. 16 of all reagents (2%) were called active. 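Active marks cell loss from silencing alone; drug synergy shows only in the synergy scores, not the calls.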 Further read-outs or replicates are left out here. The record does not give: the amount of reagent, the time to read-out.

- Test: 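Kinase-wide silencing tested with three anchor drugs to reveal synergistic lethal pairs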 (primary screen)
- System: human LS513 colorectal cancer cells
- Reagent: siRNA pool against human genes
- Conditions: anchor drug BYL719 at 1 µM, cetuximab at 5 µg/ml or trametinib at 10 nM, or DMSO vehicle alone; exposure time not given
- Detection: 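Survival versus non-targeting pool for each arm averaged over replicates, robust z-score in the arm with DMSO only, and synergy scores for BYL719, cetuximab or trametinib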
- Direction: robust z-score, siRNA alone (DMSO): higher = more viable cells; strongly negative means essential
- Active means: 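Called essential when silencing alone under DMSO gives a robust z-score below -3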
- Meaning of the calls: active = essential (knock-down alone); inactive = not essential

GK (glycerol kinase)
- robust z-score, siRNA alone (DMSO): 0.561
- outcome: inactive

MYLK3 (myosin light chain kinase 3)
- robust z-score, siRNA alone (DMSO): 0.561
- outcome: inactive

TRIO (trio Rho guanine nucleotide exchange factor)
- robust z-score, siRNA alone (DMSO): 0.561
- outcome: inactive

PRKCG (protein kinase C gamma)
- robust z-score, siRNA alone (DMSO): 0.561
- outcome: inactive

NTN4 (netrin 4)
- robust z-score, siRNA alone (DMSO): 0.461
- outcome: inactive

MAP3K8 (mitogen-activated protein kinase kinase kinase 8)
- robust z-score, siRNA alone (DMSO): -2.39
- outcome: inactive

STK38 (serine/threonine kinase 38)
- robust z-score, siRNA alone (DMSO): -1.14
- outcome: inactive

PLK4 (polo like kinase 4)
- robust z-score, siRNA alone (DMSO): 0.561
- outcome: inactive

RUNX1 (RUNX family transcription factor 1)
- robust z-score, siRNA alone (DMSO): -2.74
- outcome: inactive

GOLGA5 (golgin A5)
- robust z-score, siRNA alone (DMSO): 0.561
- outcome: inactive

PRKG1 (protein kinase cGMP-dependent 1)
- robust z-score, siRNA alone (DMSO): 0.561
- outcome: inactive

PTGS1 (prostaglandin-endoperoxide synthase 1)
- robust z-score, siRNA alone (DMSO): -0.681
- outcome: inactive

MAP3K9 (mitogen-activated protein kinase kinase kinase 9)
- robust z-score, siRNA alone (DMSO): -1.77
- outcome: inactive

SRPK3 (SRSF protein kinase 3)
- robust z-score, siRNA alone (DMSO): 0.561
- outcome: inactive

YES1 (YES proto-oncogene 1, Src family tyrosine kinase)
- robust z-score, siRNA alone (DMSO): 0.561
- outcome: inactive

CKS1B (CDC28 protein kinase regulatory subunit 1B)
- robust z-score, siRNA alone (DMSO): 0.561
- outcome: inactive

WNK4 (WNK lysine deficient protein kinase 4)
- robust z-score, siRNA alone (DMSO): 0.561
- outcome: inactive

KIT (KIT proto-oncogene, receptor tyrosine kinase)
- robust z-score, siRNA alone (DMSO): 0.561
- outcome: inactive

NEK2 (NIMA related kinase 2)
- robust z-score, siRNA alone (DMSO): -0.224
- outcome: inactive

RAD21 (RAD21 cohesin complex component)
- robust z-score, siRNA alone (DMSO): 0.561
- outcome: inactive

PRKG2 (protein kinase cGMP-dependent 2)
- robust z-score, siRNA alone (DMSO): 0.561
- outcome: inactive

CDK18 (cyclin dependent kinase 18)
- robust z-score, siRNA alone (DMSO): -3.27
- outcome: active

CDK11B (cyclin dependent kinase 11B)
- robust z-score, siRNA alone (DMSO): -0.983
- outcome: inactive

TSSK2 (testis specific serine kinase 2)
- robust z-score, siRNA alone (DMSO): -2.13
- outcome: inactive

EPHA10 (EPH receptor A10)
- robust z-score, siRNA alone (DMSO): -1.8
- outcome: inactive

PAK2 (p21 (RAC1) activated kinase 2)
- robust z-score, siRNA alone (DMSO): 0.561
- outcome: inactive

MAP3K4 (mitogen-activated protein kinase kinase kinase 4)
- robust z-score, siRNA alone (DMSO): 0.561
- outcome: inactive

LRRK1 (leucine rich repeat kinase 1)
- robust z-score, siRNA alone (DMSO): 0.561
- outcome: inactive

MAP3K3 (mitogen-activated protein kinase kinase kinase 3)
- robust z-score, siRNA alone (DMSO): -0.508
- outcome: inactive

MAP3K15 (mitogen-activated protein kinase kinase kinase 15)
- robust z-score, siRNA alone (DMSO): 0.561
- outcome: inactive

CDK10 (cyclin dependent kinase 10)
- robust z-score, siRNA alone (DMSO): 0.561
- outcome: inactive

SGK2 (serum/glucocorticoid regulated kinase 2)
- robust z-score, siRNA alone (DMSO): -0.472
- outcome: inactive

CALM3 (calmodulin 3)
- robust z-score, siRNA alone (DMSO): 0.561
- outcome: inactive

CSNK1D (casein kinase 1 delta)
- robust z-score, siRNA alone (DMSO): 0.198
- outcome: inactive

CDK17 (cyclin dependent kinase 17)
- robust z-score, siRNA alone (DMSO): 0.561
- outcome: inactive

PAK6 (p21 (RAC1) activated kinase 6)
- robust z-score, siRNA alone (DMSO): 0.561
- outcome: inactive
